# Laboratory results taken from PubChem BioAssay AID2517 (National Center for Advancing Translational Sciences (NCATS), 2010).
# Chains of the proteins cited; added tags and fusions are not shown.
# UniProt P27695, whole entry, looked up: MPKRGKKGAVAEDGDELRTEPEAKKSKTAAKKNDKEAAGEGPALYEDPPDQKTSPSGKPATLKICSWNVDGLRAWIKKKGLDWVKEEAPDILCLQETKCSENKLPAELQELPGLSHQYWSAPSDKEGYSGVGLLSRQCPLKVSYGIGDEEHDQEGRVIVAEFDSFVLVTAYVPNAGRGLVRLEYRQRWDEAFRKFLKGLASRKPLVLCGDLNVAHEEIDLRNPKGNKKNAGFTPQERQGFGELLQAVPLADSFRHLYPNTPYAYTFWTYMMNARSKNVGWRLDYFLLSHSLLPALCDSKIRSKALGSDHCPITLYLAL
# Values joined by “and” are separate entries in the source; they are usually repeats but may differ in a detail not shown here. Identical values can stand only once. In all, about 350,000 compounds went through this assay and about 1,200 (0.34%) were called active. Inconclusive results, whose numbers are uncertain, are shown with a selection of clear calls. Calls follow the shape of the dose curve; as a rule, active = well fitted inhibition curve with a large enough effect; inconclusive = small, poorly fitted or top-dose-only effect; inactive = no such curve, though single readings can be large or run the other way. Potencies beside an inconclusive call are fits to weak or partial responses and may not hold up.
# Target: DNA repair nuclease/redox regulator APEX1 (Homo sapiens) (UniProt P27695)
# Test: qHTS Assay for Inhibitors of the Human Apurinic/apyrimidinic Endonuclease 1 (APE1); also: nearly all actives have a fitted effect of over 55% in size;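 as to activity change, negative = inhibition: plate controls were vehicle for no effect and reference inhibitor for full effect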
# Details: recombinant APE1, TAMRA/BHQ-2 abasic DNA cleavage fluorescence; activity change, negative = inhibition: at 65.8 µM (top of the series)
# In short: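 Enzyme (0.75 nM final) and test compound are incubated 15 min at room temperature before adding 50 nM quenched THF abasic-site duplex. Cleavage dequenches TAMRA, followed at 525/598 nm over three reads one minute apart.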
# Potency is read from the fitted curve at half-maximal effect.
Structure (SMILES),Potency,"activity change, negative = inhibition"
COC(=O)c1c(NC(=O)c2ccco2)sc2c1CCC2,"inconclusive: 0.0158 µM [inhibitor, full curve, poor fit]",
CCOC(=O)N1CCN(S(=O)(=O)c2ccc(C(=O)NNc3nc4cc(C)cc(C)c4s3)cc2)CC1,"inconclusive: 7.08 µM [inhibitor, single point]",
Cc1ccc(C(=O)NNc2ncnc3ccccc23)cc1,,inactive: 8.13%
COc1ccc(OC)c(C2CC(=O)N3CN(c4cccc(Cl)c4C)CSC3=C2C#N)c1 (stereo not given),,inactive: 1.02%
CN(Cc1cnc2nc(N)nc(N)c2n1)c1ccc(C(=O)N[C@@H](CCC(=O)O)C(=O)O)cc1,"inconclusive: 28.2 µM [inhibitor, partial curve, poor fit]",
Cn1nc(-c2ccccn2)nc2c(=O)n(C)c(=O)nc1-2,"inconclusive: 0.562 µM [inhibitor, full curve]",
CCOc1ccc(-c2nc(C)c(C(C)=O)n2O)cc1,"inconclusive: 14.1 µM [inhibitor, partial curve, poor fit]",
Cc1ccc(-c2cc(N)n(-c3ccc(C)cc3)n2)cc1,"inconclusive: 35.5 µM [inhibitor, single point]",
Nc1ccc(O)c(-c2nc3ccccc3s2)c1,,inactive: -11.5%
CCOc1ccc2nc3cc(N)ccc3c(N)c2c1,"inconclusive: 20 µM [inhibitor, partial curve]",
Nc1cc(C(=O)O)ccc1Sc1ccccc1C(=O)O,"inconclusive: 11.2 µM [inhibitor, partial curve, poor fit]",
Cc1ccc(S(=O)(=O)/N=C2/NC(=O)/C(=C/c3cccnc3)S2)cc1,,inactive: 4.54%
O=c1c(O)c(-c2ccc(O)c(O)c2)oc2ccccc12,"inconclusive: 1.58 µM [inhibitor, full curve, poor fit]",
CCc1ccc(N2CN(Cc3cccnc3)CNC2=S)cc1,"inconclusive: 44.7 µM [inhibitor, single point]",
CN1C(=O)C(CC(=O)Nc2ccc(F)cc2)N(Cc2cccs2)C1=S (stereo not given),"inconclusive: 7.94 µM [inhibitor, single point]",
CCN(CC)CCNc1ccc(CO)c2sc3ccccc3c(=O)c12,"inactive and inconclusive: 31.6 µM [inhibitor, single point] and inconclusive: 17.8 µM [inhibitor, partial curve, poor fit]",
COc1cc(OC)cc(C(=O)N/N=C2/SCC(=O)N2Cc2ccco2)c1,"inconclusive: 44.7 µM [inhibitor, single point]",
Cc1c(O)c(S(=O)(=O)c2ccccc2)c(=O)n(-c2ccccc2)c1-c1ccccc1,,inactive: 5.49%
Nc1c(S(=O)(=O)O)cc(Nc2ccc(Cl)cc2)c2c1C(=O)c1ccccc1C2=O,"inconclusive: 17.8 µM [inhibitor, partial curve]",
Cc1cc(NC(=O)C2C3C=CC(C3)C2C(=O)O)no1 (stereo not given),"inconclusive: 39.8 µM [inhibitor, single point]",

Structure (SMILES),Potency,"activity change, negative = inhibition"
CCOC(=O)C1CCCN(S(=O)(=O)c2cc3[nH]c(=O)c(=O)[nH]c3cc2C)C1 (stereo not given),,inactive: 23.7%
COc1ccc(OC)c(NC(=O)c2ccc(CSc3nnc(C)s3)cc2)c1,"inconclusive: 7.08 µM [inhibitor, single point]",
CCCCCCCCCC(=O)NC(CN1CCOCC1)[C@H](O)c1ccccc1 (stereo not given in full),"inconclusive: 0.631 µM [inhibitor, full curve, poor fit]",
CCOC(=O)C1=C(OCc2ccc(Cl)cc2)C2C=C(C)C=CC2N=C1 (stereo not given),,inactive: -0.327%
CC(NC(=O)/C=C/c1ccc(Br)cc1)c1ccccc1 (stereo not given),"inconclusive: 39.8 µM [inhibitor, single point]",
N#C/C(=C\c1ccco1)C(=O)NCc1ccccc1,,inactive: -11.1%
NS(=O)(=O)c1ccc(NC(=O)/C=C/c2ccco2)cc1,"inconclusive: 44.7 µM [inhibitor, single point]",
O=C(c1ccc(Cl)c([N+](=O)[O-])c1)N(Cc1ccco1)C1CCS(=O)(=O)C1 (stereo not given),"inconclusive: 33.6 µM [inhibitor, single point]",
O=C(Nc1cccc(S(=O)(=O)N2CCCCC2)c1)C1CC1,"inconclusive: 15 µM [inhibitor, partial curve]",
O=C(CN1C(=O)c2ccc([N+](=O)[O-])cc2C1=O)NCc1ccco1,,inactive: -0.578%
C=C(C)C(=O)Nc1cccc(C2=NOC3(C2)C[C@H](C(N)=O)N(C(=O)c2ccccc2C(=O)c2ccccc2)C3)c1 (stereo not given in full),"inconclusive: 22.4 µM [inhibitor, partial curve]",
CC(C)(C)c1csc(NC(=O)Cc2cccs2)n1,"inconclusive: 39.8 µM [inhibitor, partial curve]",
Cc1ccc(S(=O)(=O)/N=C(/c2ccccc2)N2CCOCC2)cc1,"inconclusive: 0.0398 µM [inhibitor, full curve, poor fit]",
CC(=O)[C@@H]1[C@@H]2C(=O)N(C3CCCCC3)C(=O)[C@@H]2C2c3ccccc3C=CN21 (stereo not given in full),"inconclusive: 44.7 µM [inhibitor, single point]",
C=CC1=C(C(=O)O)N2C(=O)[C@@H](NC(=O)/C(=N\O)c3csc(N)n3)[C@H]2SC1 (stereo in doubt),"inconclusive: 39.8 µM [inhibitor, single point] and inconclusive: 28.2 µM [inhibitor, partial curve, poor fit]",
O=C(C1CCN(Cc2ccc(F)cc2)CC1)N1CCN(C/C=C/c2ccccc2)CC1,"inconclusive: 0.501 µM [inhibitor, full curve, poor fit]",
Cc1cccc(NC(=O)CSc2cn[nH]n2)c1,,inactive: 65.9%
O=C(CSc1ncccn1)Nc1cc(Cl)ccc1[N+](=O)[O-],"inconclusive: 0.0224 µM [inhibitor, full curve, poor fit]",
Cc1cccc2sc(NC(=O)C3CCN(S(=O)(=O)c4cc([N+](=O)[O-])ccc4Cl)CC3)nc12,,inactive: 0.756%
O=C(O)CCCN1C(=O)/C(=C/c2cn(-c3ccccc3)nc2-c2cccs2)SC1=S,"inconclusive: 31.6 µM [inhibitor, single point]",
